Results are given in words; binding and its absence hold for the method and conditions named. In cells and extracts the contact can be indirect. These calls come from enrichment with a bait or labelling near it, and not all partners need be listed.
Experiments:
TAP-Kv4.2 (human) [1] = target: TAP-Kv4.2 (human) (UniProt Q9NZV8); assay: affinity purification with mass spectrometry; TAP-Kv4.2 expressed by lentivirus in rat hippocampal neurons, harvested at DIV14; strong lysis buffer (1% Triton X-100, 0.5% deoxycholate in PBS, pH 7.4); streptavidin resin, then calmodulin resin; gel cut into high and low molecular weight fragments; no MS of the control sample
TAP-Kv4.2 (human) [2] = target: TAP-Kv4.2 (human) (UniProt Q9NZV8); assay: affinity purification with mass spectrometry; TAP-Kv4.2 expressed by lentivirus in rat hippocampal neurons, harvested at DIV14; weak lysis buffer of the kit (0.1% NP-40); streptavidin resin, then calmodulin resin; gel cut into high and low molecular weight fragments; no MS of the control sample

By UniProt entry, the sequences of proteins in these tests, tags left out.
UniProt Q9NZV8: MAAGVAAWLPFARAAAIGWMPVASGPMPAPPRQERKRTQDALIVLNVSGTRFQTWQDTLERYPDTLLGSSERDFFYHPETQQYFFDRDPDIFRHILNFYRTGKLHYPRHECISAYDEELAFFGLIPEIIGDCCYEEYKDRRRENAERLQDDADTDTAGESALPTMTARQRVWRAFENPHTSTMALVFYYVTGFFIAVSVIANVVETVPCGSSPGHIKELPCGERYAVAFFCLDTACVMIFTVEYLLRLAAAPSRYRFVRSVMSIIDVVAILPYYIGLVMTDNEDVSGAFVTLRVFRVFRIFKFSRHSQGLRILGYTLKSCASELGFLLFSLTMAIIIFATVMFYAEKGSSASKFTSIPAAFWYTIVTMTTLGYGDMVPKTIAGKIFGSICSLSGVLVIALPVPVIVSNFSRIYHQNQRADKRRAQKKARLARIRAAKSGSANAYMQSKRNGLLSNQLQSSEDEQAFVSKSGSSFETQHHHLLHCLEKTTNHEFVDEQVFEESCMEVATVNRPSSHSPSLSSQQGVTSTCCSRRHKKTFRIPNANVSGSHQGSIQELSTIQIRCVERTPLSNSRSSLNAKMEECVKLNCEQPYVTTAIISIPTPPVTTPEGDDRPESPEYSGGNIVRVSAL
UniProt P84079: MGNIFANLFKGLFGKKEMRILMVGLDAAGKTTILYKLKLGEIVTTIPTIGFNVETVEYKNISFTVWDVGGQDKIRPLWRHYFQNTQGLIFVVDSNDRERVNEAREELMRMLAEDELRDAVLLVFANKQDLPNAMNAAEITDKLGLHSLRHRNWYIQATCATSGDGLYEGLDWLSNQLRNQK
UniProt P12785: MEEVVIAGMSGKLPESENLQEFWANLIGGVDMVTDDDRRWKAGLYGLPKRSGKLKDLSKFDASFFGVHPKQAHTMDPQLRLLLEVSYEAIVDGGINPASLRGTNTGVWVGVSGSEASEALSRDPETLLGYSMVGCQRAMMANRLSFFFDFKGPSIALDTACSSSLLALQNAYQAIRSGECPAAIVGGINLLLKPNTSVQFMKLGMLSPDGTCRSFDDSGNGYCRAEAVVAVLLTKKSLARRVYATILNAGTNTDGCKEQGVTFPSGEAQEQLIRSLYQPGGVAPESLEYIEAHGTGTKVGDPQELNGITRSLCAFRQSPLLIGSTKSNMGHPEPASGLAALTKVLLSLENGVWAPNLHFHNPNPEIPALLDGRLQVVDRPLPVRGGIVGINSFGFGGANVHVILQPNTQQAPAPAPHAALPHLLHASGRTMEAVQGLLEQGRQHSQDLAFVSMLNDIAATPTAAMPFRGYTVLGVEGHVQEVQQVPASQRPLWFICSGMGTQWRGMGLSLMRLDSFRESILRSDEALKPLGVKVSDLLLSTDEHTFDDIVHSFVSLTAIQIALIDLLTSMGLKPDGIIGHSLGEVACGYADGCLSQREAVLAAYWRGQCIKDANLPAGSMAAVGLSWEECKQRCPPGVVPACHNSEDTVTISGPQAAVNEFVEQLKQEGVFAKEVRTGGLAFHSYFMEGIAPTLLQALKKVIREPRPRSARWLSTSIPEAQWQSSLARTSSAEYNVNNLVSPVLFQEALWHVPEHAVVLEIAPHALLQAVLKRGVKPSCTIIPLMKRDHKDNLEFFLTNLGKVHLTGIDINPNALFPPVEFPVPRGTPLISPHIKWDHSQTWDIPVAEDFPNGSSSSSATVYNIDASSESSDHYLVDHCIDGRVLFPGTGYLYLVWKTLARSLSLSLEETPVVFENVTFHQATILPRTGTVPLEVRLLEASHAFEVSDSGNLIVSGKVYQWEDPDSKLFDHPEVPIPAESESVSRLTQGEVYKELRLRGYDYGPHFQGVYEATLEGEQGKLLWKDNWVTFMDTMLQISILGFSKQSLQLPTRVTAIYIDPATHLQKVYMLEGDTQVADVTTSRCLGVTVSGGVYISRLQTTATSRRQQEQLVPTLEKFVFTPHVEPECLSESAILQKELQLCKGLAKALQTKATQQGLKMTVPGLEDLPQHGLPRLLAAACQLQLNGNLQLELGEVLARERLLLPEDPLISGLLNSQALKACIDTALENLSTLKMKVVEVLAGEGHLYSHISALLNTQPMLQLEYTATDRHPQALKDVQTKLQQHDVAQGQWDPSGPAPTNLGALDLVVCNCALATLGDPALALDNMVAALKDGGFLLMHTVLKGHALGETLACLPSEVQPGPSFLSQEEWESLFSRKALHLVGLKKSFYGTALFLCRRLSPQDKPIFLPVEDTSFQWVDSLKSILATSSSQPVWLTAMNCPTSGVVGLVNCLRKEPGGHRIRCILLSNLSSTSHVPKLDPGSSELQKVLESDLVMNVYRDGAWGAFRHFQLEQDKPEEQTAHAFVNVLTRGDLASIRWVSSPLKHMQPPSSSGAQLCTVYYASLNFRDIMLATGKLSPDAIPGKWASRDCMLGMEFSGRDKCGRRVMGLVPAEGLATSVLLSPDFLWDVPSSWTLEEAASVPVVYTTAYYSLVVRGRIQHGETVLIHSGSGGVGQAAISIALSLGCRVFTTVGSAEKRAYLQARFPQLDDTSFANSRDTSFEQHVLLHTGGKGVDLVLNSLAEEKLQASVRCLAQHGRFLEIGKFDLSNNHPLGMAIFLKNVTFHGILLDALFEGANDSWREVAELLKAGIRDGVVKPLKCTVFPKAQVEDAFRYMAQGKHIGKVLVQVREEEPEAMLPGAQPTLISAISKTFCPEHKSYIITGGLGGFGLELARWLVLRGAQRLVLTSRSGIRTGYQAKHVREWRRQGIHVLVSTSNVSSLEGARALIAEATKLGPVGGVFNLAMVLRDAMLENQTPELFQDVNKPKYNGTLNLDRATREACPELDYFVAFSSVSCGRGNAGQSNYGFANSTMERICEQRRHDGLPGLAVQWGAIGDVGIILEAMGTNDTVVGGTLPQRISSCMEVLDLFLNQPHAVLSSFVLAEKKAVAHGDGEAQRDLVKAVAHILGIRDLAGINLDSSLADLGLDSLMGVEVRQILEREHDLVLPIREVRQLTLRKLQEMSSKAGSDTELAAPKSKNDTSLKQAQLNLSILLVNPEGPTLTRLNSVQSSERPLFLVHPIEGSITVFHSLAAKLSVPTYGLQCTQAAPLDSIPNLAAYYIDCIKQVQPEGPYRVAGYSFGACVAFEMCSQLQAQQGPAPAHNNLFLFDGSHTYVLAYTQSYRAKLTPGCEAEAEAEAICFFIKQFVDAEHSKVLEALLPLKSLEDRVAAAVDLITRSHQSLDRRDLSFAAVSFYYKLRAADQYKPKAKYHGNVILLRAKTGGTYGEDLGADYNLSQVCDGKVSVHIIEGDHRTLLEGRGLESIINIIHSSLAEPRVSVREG
UniProt Q6IMY8: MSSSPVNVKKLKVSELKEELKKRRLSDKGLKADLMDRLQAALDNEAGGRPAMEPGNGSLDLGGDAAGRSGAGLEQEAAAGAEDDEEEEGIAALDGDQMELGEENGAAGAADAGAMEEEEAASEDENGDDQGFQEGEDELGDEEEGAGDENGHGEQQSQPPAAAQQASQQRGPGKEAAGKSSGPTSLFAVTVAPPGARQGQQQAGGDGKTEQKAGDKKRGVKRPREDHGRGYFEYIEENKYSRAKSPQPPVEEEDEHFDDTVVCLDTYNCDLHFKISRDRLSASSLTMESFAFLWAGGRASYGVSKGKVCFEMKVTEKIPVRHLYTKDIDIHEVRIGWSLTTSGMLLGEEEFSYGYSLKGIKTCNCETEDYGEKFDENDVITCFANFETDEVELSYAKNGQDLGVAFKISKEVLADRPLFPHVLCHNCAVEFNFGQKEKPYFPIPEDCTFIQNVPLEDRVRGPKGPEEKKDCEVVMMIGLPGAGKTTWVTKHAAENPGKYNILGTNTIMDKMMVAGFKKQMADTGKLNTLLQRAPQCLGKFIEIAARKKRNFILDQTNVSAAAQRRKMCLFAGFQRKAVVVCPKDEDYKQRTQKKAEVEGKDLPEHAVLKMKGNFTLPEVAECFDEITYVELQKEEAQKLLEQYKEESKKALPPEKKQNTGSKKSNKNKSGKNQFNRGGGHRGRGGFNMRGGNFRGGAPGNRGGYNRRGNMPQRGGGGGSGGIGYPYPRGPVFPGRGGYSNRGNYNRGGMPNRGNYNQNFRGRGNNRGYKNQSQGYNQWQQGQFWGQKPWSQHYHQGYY
UniProt Q5XIH7: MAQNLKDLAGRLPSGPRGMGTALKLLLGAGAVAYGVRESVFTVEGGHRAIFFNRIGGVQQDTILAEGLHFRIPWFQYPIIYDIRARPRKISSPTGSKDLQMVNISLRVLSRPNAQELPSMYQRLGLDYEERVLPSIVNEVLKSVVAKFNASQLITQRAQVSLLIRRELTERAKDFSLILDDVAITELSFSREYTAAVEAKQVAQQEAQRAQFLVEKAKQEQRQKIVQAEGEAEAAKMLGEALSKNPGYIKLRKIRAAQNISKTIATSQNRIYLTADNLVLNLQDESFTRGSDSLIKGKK
UniProt Q6MG48: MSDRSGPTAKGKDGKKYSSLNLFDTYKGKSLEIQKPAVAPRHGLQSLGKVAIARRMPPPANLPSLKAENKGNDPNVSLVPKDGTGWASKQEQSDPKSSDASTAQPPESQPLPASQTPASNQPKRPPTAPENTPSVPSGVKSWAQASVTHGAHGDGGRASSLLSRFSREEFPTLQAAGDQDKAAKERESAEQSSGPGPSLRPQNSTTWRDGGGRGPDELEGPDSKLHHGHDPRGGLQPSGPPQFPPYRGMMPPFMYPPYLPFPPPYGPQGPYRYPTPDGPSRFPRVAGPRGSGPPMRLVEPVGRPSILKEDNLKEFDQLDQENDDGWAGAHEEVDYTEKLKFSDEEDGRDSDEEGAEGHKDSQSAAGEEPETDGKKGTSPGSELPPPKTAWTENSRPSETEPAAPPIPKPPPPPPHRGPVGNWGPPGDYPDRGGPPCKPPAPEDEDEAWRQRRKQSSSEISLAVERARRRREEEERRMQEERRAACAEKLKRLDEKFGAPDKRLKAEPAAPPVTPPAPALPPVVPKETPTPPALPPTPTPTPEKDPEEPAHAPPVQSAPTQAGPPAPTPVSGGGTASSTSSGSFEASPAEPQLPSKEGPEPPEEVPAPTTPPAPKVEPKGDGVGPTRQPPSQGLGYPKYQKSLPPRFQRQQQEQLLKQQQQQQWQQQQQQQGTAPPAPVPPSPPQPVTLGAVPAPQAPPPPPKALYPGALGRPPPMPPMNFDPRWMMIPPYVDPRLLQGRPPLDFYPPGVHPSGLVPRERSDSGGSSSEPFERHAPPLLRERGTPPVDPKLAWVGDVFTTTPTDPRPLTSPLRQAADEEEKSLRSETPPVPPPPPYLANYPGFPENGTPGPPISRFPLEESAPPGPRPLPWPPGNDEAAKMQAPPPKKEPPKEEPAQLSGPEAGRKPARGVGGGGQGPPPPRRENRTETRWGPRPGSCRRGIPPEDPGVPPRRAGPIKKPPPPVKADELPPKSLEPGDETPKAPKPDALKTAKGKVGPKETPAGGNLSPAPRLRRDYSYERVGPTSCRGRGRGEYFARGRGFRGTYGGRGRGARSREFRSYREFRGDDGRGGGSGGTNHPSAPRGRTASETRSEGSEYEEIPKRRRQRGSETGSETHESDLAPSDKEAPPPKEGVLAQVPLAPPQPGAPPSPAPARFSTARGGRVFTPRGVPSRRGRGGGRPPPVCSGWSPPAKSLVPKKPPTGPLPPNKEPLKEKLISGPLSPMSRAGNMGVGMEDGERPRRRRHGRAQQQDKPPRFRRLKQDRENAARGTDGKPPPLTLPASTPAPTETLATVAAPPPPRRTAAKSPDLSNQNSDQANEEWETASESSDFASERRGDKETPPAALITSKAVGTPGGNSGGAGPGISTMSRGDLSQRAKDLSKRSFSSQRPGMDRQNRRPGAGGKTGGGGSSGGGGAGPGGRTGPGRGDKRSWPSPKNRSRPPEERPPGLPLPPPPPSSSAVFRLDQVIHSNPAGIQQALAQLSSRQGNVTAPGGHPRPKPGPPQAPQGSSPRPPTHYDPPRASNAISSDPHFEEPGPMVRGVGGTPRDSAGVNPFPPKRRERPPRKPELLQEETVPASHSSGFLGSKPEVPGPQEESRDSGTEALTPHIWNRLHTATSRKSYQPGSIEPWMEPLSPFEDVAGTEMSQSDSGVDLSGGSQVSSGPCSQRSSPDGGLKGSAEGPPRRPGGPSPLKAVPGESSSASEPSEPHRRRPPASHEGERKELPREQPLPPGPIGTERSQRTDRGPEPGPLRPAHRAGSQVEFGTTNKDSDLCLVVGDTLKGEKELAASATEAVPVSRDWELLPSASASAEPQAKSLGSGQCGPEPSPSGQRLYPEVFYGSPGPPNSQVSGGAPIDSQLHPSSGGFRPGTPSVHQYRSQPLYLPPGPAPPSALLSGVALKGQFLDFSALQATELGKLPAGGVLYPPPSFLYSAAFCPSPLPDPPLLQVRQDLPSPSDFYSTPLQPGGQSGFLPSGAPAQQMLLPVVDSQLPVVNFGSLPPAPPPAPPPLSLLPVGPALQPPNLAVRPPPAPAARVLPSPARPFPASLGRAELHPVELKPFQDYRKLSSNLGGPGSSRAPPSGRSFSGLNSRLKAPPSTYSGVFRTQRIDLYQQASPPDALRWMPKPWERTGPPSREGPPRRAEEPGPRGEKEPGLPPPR

Substance: Agap2 (from UniProt Q8CGU4 1-1186)
- binding (TAP-Kv4.2 (human) [1]): binds
- binding (TAP-Kv4.2 (human) [2]): binds

Substance: Akap12 (from UniProt Q5QD51 1-1687)
- binding (TAP-Kv4.2 (human) [1]): binds
- binding (TAP-Kv4.2 (human) [2]): binds

Substance: Ank3 (from UniProt O70511 1-2622)
- binding (TAP-Kv4.2 (human) [1]): binds
- binding (TAP-Kv4.2 (human) [2]): binds

Substance: Arf1 (from UniProt P84079 1-181)
- binding (TAP-Kv4.2 (human) [1]): binds
- binding (TAP-Kv4.2 (human) [2]): binds

Substance: Atp2b2 (from UniProt P11506 1-1243)
- binding (TAP-Kv4.2 (human) [1]): binds
- binding (TAP-Kv4.2 (human) [2]): binds

Substance: Atp2b3 (from UniProt Q64568 1-1258)
- binding (TAP-Kv4.2 (human) [1]): binds
- binding (TAP-Kv4.2 (human) [2]): binds

Substance: Atp2b4 (from UniProt Q64542 1-1203)
- binding (TAP-Kv4.2 (human) [1]): binds
- binding (TAP-Kv4.2 (human) [2]): binds

Substance: Atp5a1 (from UniProt P15999 44-553)
- binding (TAP-Kv4.2 (human) [1]): binds
- binding (TAP-Kv4.2 (human) [2]): binds

Substance: Camk2a (from UniProt P11275 1-478)
- binding (TAP-Kv4.2 (human) [1]): binds
- binding (TAP-Kv4.2 (human) [2]): binds

Substance: Camk2b (from UniProt P08413 1-542)
- binding (TAP-Kv4.2 (human) [1]): binds
- binding (TAP-Kv4.2 (human) [2]): binds

Substance: Cav2.3 (from UniProt Q07652 1-2222)
- binding (TAP-Kv4.2 (human) [1]): binds
- binding (TAP-Kv4.2 (human) [2]): binds

Substance: Cltc (from UniProt P11442 1-1675)
- binding (TAP-Kv4.2 (human) [1]): binds
- binding (TAP-Kv4.2 (human) [2]): binds

Substance: Dctn1 (from UniProt P28023 1-1280)
- binding (TAP-Kv4.2 (human) [1]): binds
- binding (TAP-Kv4.2 (human) [2]): binds

Substance: Dync1h1 (from UniProt P38650 1-4644)
- binding (TAP-Kv4.2 (human) [1]): binds
- binding (TAP-Kv4.2 (human) [2]): binds

Substance: Fasn (from UniProt P12785 1-2505)
- binding (TAP-Kv4.2 (human) [1]): binds
- binding (TAP-Kv4.2 (human) [2]): binds

Substance: Gprin1 (from UniProt A0A8I6AJM0 1-914)
- binding (TAP-Kv4.2 (human) [1]): binds
- binding (TAP-Kv4.2 (human) [2]): binds

Substance: Hnrnpu (from UniProt Q6IMY8 1-798)
- binding (TAP-Kv4.2 (human) [1]): binds
- binding (TAP-Kv4.2 (human) [2]): binds

Substance: Hsp90aa1 (from UniProt P82995 1-733)
- binding (TAP-Kv4.2 (human) [1]): binds
- binding (TAP-Kv4.2 (human) [2]): binds

Substance: Hspa8 (from UniProt P63018 1-646)
- binding (TAP-Kv4.2 (human) [1]): binds
- binding (TAP-Kv4.2 (human) [2]): binds

Substance: Kif5b (from UniProt Q2PQA9 1-963)
- binding (TAP-Kv4.2 (human) [1]): binds
- binding (TAP-Kv4.2 (human) [2]): binds

Substance: Kif5c (from UniProt P56536 1-955)
- binding (TAP-Kv4.2 (human) [1]): binds
- binding (TAP-Kv4.2 (human) [2]): binds

Substance: Kif21b (from UniProt F1M5N7 1-1634)
- binding (TAP-Kv4.2 (human) [1]): binds
- binding (TAP-Kv4.2 (human) [2]): binds

Substance: Lrpprc (from UniProt Q5SGE0 78-1392)
- binding (TAP-Kv4.2 (human) [1]): binds
- binding (TAP-Kv4.2 (human) [2]): binds

Substance: Map1b (from UniProt P15205 1-2461)
- binding (TAP-Kv4.2 (human) [1]): binds
- binding (TAP-Kv4.2 (human) [2]): binds

Substance: Myo5a (from UniProt Q9QYF3 1-1828)
- binding (TAP-Kv4.2 (human) [1]): binds
- binding (TAP-Kv4.2 (human) [2]): binds

Substance: Nos1 (from UniProt P29476 1-1429)
- binding (TAP-Kv4.2 (human) [1]): binds
- binding (TAP-Kv4.2 (human) [2]): binds

Substance: Opa1 (from UniProt Q2TA68 88-960)
- binding (TAP-Kv4.2 (human) [1]): binds
- binding (TAP-Kv4.2 (human) [2]): binds

Substance: Phb2 (from UniProt Q5XIH7 1-299)
- binding (TAP-Kv4.2 (human) [1]): binds
- binding (TAP-Kv4.2 (human) [2]): binds

Substance: PlexinA3 (from UniProt D3ZPX4 20-1872)
- binding (TAP-Kv4.2 (human) [1]): binds
- binding (TAP-Kv4.2 (human) [2]): binds

Substance: Ppfia3 (from UniProt Q91Z79 1-1192)
- binding (TAP-Kv4.2 (human) [1]): binds
- binding (TAP-Kv4.2 (human) [2]): binds

Substance: Ppp3ca (from UniProt P63329 1-521)
- binding (TAP-Kv4.2 (human) [1]): binds
- binding (TAP-Kv4.2 (human) [2]): binds

Substance: Ppp3cb (from UniProt P20651 1-525)
- binding (TAP-Kv4.2 (human) [1]): binds
- binding (TAP-Kv4.2 (human) [2]): binds

Substance: Prrc2a (from UniProt Q6MG48 1-2161)
- binding (TAP-Kv4.2 (human) [1]): binds
- binding (TAP-Kv4.2 (human) [2]): binds

Substance: Slc25a1 (from UniProt P32089 14-311)
- binding (TAP-Kv4.2 (human) [1]): binds
- binding (TAP-Kv4.2 (human) [2]): binds

Substance: Sptan1 (from UniProt P16086 1-2472)
- binding (TAP-Kv4.2 (human) [1]): binds
- binding (TAP-Kv4.2 (human) [2]): binds

Substance: Tanc2 (from UniProt F1LTE0 1-1992)
- binding (TAP-Kv4.2 (human) [1]): binds

Substance: Tenm2 (from UniProt Q9R1K2 1-2774)
- binding (TAP-Kv4.2 (human) [1]): binds
- binding (TAP-Kv4.2 (human) [2]): binds

Substance: Tjp1 (from UniProt A0A0G2K2P5 1-1765)
- binding (TAP-Kv4.2 (human) [1]): binds

Substance: Tpr (from UniProt F1MA98 1-2360)
- binding (TAP-Kv4.2 (human) [1]): binds

Substance: Trip12 (from UniProt F1LP64 1-2025)
- binding (TAP-Kv4.2 (human) [1]): binds

Substance: Tsc2 (from UniProt P49816 1-1809)
- binding (TAP-Kv4.2 (human) [1]): binds

Substance: Tubb2a (from UniProt P85108 1-445)
- binding (TAP-Kv4.2 (human) [1]): binds
- binding (TAP-Kv4.2 (human) [2]): binds

Substance: Tubb3 (from UniProt Q4QRB4 1-450)
- binding (TAP-Kv4.2 (human) [1]): binds
- binding (TAP-Kv4.2 (human) [2]): binds

Substance: Ubr4 (from UniProt Q2TL32 1-5194)
- binding (TAP-Kv4.2 (human) [1]): binds
- binding (TAP-Kv4.2 (human) [2]): binds

Substance: Ubr5 (from UniProt Q62671 1-2788)
- binding (TAP-Kv4.2 (human) [1]): binds
- binding (TAP-Kv4.2 (human) [2]): binds

Substance: Unc13a (from UniProt Q62768 1-1735)
- binding (TAP-Kv4.2 (human) [1]): binds
- binding (TAP-Kv4.2 (human) [2]): binds

Substance: Wdr7 (from UniProt Q9ERH3 1-1488)
- binding (TAP-Kv4.2 (human) [1]): binds
- binding (TAP-Kv4.2 (human) [2]): binds

Substance: Ywhae (from UniProt P62260 1-255)
- binding (TAP-Kv4.2 (human) [1]): binds

Substance: Zfr (from UniProt Q562A2 1-1073)
- binding (TAP-Kv4.2 (human) [1]): binds

Reference: publication PMC9788671
